# Results: PubChem BioAssay AID540275 (National Center for Advancing Translational Sciences (NCATS), 2011)
# Amino acid sequences for entries named in this document (tags omitted).
# UniProt Q8NER1, whole entry, looked up: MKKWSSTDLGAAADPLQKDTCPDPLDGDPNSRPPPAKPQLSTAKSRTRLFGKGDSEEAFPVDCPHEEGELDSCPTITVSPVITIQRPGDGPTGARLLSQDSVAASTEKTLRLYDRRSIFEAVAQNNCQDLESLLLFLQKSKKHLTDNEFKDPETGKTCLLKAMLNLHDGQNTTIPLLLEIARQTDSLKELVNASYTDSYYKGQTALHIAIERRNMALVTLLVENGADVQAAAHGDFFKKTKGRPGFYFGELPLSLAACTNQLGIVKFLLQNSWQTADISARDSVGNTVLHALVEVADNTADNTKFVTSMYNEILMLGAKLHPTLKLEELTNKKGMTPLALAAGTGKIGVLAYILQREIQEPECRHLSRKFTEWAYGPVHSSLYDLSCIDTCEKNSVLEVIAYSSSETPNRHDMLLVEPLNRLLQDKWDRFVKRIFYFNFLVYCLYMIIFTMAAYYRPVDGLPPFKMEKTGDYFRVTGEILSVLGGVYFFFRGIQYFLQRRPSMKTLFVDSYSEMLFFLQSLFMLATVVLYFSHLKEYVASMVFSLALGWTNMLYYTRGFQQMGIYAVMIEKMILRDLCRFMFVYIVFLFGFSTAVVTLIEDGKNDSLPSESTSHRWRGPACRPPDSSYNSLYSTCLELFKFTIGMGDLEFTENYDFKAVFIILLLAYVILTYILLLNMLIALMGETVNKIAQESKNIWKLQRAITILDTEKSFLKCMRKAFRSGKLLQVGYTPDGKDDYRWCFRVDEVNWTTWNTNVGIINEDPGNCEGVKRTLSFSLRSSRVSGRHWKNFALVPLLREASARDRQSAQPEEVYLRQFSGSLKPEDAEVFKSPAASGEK
# Among all 320,000 compounds or so, about 620 (0.19%) were called active. The shares of active, inactive and inconclusive entries below differ from those in the screen. Rule as the data show it: active = activation above about 80%; inconclusive = between about 30% and that limit; inactive = weaker than that.
# Molecular target: Transient receptor potential cation channel subfamily V member 1 (Homo sapiens) (UniProt Q8NER1)
# Experiment: HTS Assay for Compounds that Act as Agonists of the Vanilloid Receptor 1; as to activation: 0% is about no effect
# Details: TRPV1-expressing cells, Fluo-8 calcium influx, agonist mode; at 8.33 µM, active compounds read high
# In short: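 Fluo-8 calcium influx in TRPV1-expressing cells, kinetic read (ex 480/em 520 nm). Compound added and read 3 min for agonist activity, followed by capsaicin at EC20 final and 2 min further read for enhancement.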
row,Compound,activation
1,O=c1c2ccccc2nc(-c2ccccc2)n1/N=C/c1ccc([N+](=O)[O-])cc1,inconclusive: 35.7%
2,COc1nnc(-c2ccc(N3CCCCC3)c(NC(C)=O)c2)c2ccccc12,inconclusive: 35.4%
3,Cc1ccc(-c2cc(C(=O)N/N=C/c3c(C)nn(-c4ccccc4)c3C)n[nH]2)s1,inconclusive: 37.3%
4,O=C(Nc1cccc(Br)c1)c1cc(S(=O)(=O)N2CCOCC2)cs1,inconclusive: 46.9%
5,COc1ccc2c3n(nc2c1)CCN=C3c1ccc(C)cc1,inconclusive: 37.5%
6,CCOC(=O)C1CCN(Cc2cc(=O)oc3cc(C)ccc23)CC1,inactive: 9.42%
7,Cc1cc(C)nc(/N=C(\N)Nc2ccc(CC(=O)OC(C)C)cc2)n1,inactive: 1.33%
8,Cc1ccc(Cc2cnc(NC(=O)c3cccs3)s2)cc1,inconclusive: 44.4%
9,CCCCN(C(=O)c1ccc(S(=O)(=O)N(C)C)cc1)c1nc2ccccc2s1,inactive: 2.13%
10,CN(C)CCCC1(O)c2ccccc2C=Cc2ccccc21,inactive: 2.88%
11,O=c1c2c(c(-c3ccccc3)nn1Cc1ccccc1)CCCC2,inconclusive: 55.3%
12,Cc1cc(/C=N/NC(=O)c2cccc(F)c2)c(C)n1-c1ccccc1,inconclusive: 39.2%
13,Fc1cnc(N/N=C/c2ccc(-c3ccc(Br)cc3)o2)nc1N1CCOCC1,inconclusive: 44.7%
14,Cc1nn(CC(=O)NCCC2=CCCCC2)c(C)c1[N+](=O)[O-],inactive: 0.813%
15,O=C(NCCN1CCN(Cc2ccc([N+](=O)[O-])cc2)CC1)C(=O)Nc1ccccc1,inactive: -2.8%
16,Cc1ccc(NC(=O)c2noc3c2CCCCC3)cc1C,inconclusive: 37.9%
17,CCCOc1ccc(-c2nc(C#N)c(N3CCN(CC)CC3)o2)cc1,inactive: 16.3%
18,C=CCNc1sc(C(=O)c2ccc(C)cc2)c(N)c1C#N,inactive: 6.79%
19,CCC(CC)C(=O)c1c[nH]c(C(=O)N2CCN(c3ccc(OC)cc3)CC2)c1,inconclusive: 52%
20,COC(=O)c1ccc(Cl)c(NC(=O)CN2CCN(Cc3ccccc3)CC2)c1,inconclusive: 33.2%
21,Cc1cccc2c1-c1sc(C(=O)N3CCCCC3)cc1CO2,active: 88%
22,CCCCn1c(C)cc2c(c1=O)C1O[C@](c3ccsc3)(Cc3cc(OC)c(OC)cc31)O2,inactive
23,CC(=O)c1sc(Nc2ccccn2)nc1C,inactive: -2.9%

row,Compound,activation
1,CC(=O)c1cccc(N(C(=O)CNC(=O)c2cccs2)C(C(=O)NCC2CCCO2)c2ccccc2)c1 (centres undefined),inactive: 3.88%
2,CCCOc1ccc(N2CC(C(=O)Nc3ccc4c(c3)OCO4)CC2=O)cc1 (centres undefined),inconclusive: 65%
3,COc1ccc(/C=N/NC(=O)c2ccncc2)cc1CSc1nc2ccccc2s1,inconclusive: 59.9%
4,CCOc1ccccc1-c1nc(CN(Cc2cnn(C)c2)C(C)C)c(C)o1,inactive: 6.7%
5,Cc1ccc(C(C)NC(=S)NC2CCCCC2)cc1C (centres undefined),inconclusive: 58.1%
6,CCOC(=O)c1sc(NC(=O)c2ccc(S(=O)(=O)N(C)C)cc2)nc1C,inconclusive: 36.7%
7,Cc1ccc(-c2cc(C(=O)Nc3cccnc3)c3ccccc3n2)s1,inactive: 21.5%
8,CN(CCCn1c(=S)[nH]c2ncccc2c1=O)Cc1ccccc1,inactive: 0.497%
9,CCC1CCCCN1S(=O)(=O)c1ccc(NC(=O)c2cccs2)cc1 (centres undefined),inconclusive: 53.7%
10,O=C(Nc1ccc2c(c1)N(Cc1ccccc1)C(=O)c1ccccc1S2)NC1CC1,inconclusive: 46.1%
11,O=c1[nH]c(NCCCO)nc2c1C1(CCCC1)Cc1ccccc1-2,inconclusive: 44.2%
12,Cn1c(N2CCN(C(=O)Nc3ccc(C(F)(F)F)cc3)CC2)nc2ccccc21,inconclusive: 61.2%
13,CC(C)CNC(=O)c1ccc(Cl)c(Cl)c1,inconclusive: 44.5%
14,CCOC(=O)Cn1c(=NC(=O)C2COc3ccccc3O2)sc2cc(S(N)(=O)=O)ccc21 (centres undefined),inconclusive: 45.5%
15,CCn1c(NC(=O)/C=C/c2ccc(F)cc2)nc2ccccc21,inactive: 6.52%
16,COc1ccc(NC(=O)CCn2cccc2)cc1,inactive: 6.26%
17,COc1ccc(C2CC(=O)Oc3c(C(CCN4CCOCC4)c4cc(OC)c(OC)c(OC)c4)c(OC)cc(OC)c32)cc1 (centres undefined),inconclusive: 65.2%
18,O=C(NCc1ccc(Cl)cc1)C1CCN(S(=O)(=O)c2cc([N+](=O)[O-])ccc2Cl)CC1,inconclusive: 37.2%
19,O=C(NNC(=O)c1cc2cc3ccccc3nc2s1)c1cccc(Cl)c1,inactive: -2.19%
20,CCOc1ccc(S(=O)(=O)N2CCN(C(=O)c3ccccc3Cc3ccccc3)CC2)cc1,inactive: 0.642%
21,CCOc1ccccc1-c1cc(C(=O)N2CCOCC2)c2ccccc2n1,inconclusive: 53.6%
22,OCC[C@@H]1C[C@@H](O)[C@H](O)[C@@]2(CCc3ccccc3O2)O1,inactive: 1.29%
23,COC(=O)c1[nH]c2ccc(F)cc2c1NS(=O)(=O)c1ccc(F)c(C)c1,inconclusive: 36.3%

# Some of the entries above in a different format:
row | Compound | activation
7 | Cc1cc(C)nc(/N=C(\N)Nc2ccc(CC(=O)OC(C)C)cc2)n1 | inactive: 1.33%
17 | CCCOc1ccc(-c2nc(C#N)c(N3CCN(CC)CC3)o2)cc1 | inactive: 16.3%

# Continued:

row,Compound,activation
1,O=C(CSc1ncn[nH]1)Nc1cccc(S(=O)(=O)N2CCCCCC2)c1,inactive: -3.55%
2,COc1ccccc1/C=C/C=N/NC(=O)c1cccs1,inactive: -5.02%
3,COc1ccc(NC(=O)CCCSc2nc(-c3ccco3)cc(C(F)(F)F)n2)cc1OC,active: 83.2%
4,O=C(Nc1ccc(S(=O)(=O)N2CCOCC2)cc1)C1COc2ccccc2O1 (centres undefined),inconclusive: 42%
5,c1ccc2cc(CSCc3nc4ccccc4[nH]3)ccc2c1,inconclusive: 41.7%
6,CCOc1nc(NC2CCCCC2)nc(NC(C)(C)C)n1,inconclusive: 46.9%
7,O=C1CC(NS(=O)(=O)c2cccnc2)CN1c1cccc(F)c1 (centres undefined),inactive: 8.01%
8,COc1ccc(C(=O)CSc2ccc(-c3ccc(C)cc3)nn2)cc1,inconclusive: 52.1%
9,CCn1c(=O)c2ccccc2n(Cc2cccc([N+](=O)[O-])c2)c1=O,inactive: 0.319%
10,O=C(Nc1ccc2c(c1)nc1n2CCOC1)c1ccco1,inactive: 2.6%
11,O=[N+]([O-])c1ccc(CSc2ccc(S(=O)(=O)N3CCCCCC3)cn2)cc1,inactive: 1.86%
12,Cc1ccc(C(=O)Nc2ccc(C(=O)N/N=C/c3cccnc3)cc2)cc1,inconclusive: 50.6%
13,COc1ccc(N2C(=O)c3ccccc3NC23C(=O)N(C)c2ccccc23)cc1 (centres undefined),inactive: 6.94%
14,CCN(CC)S(=O)(=O)c1ccc(N2CCN(c3cccc(OC)c3)CC2)c([N+](=O)[O-])c1,inactive: -1.09%
15,N#Cc1cccc(CN2CCC(=O)N([C@H](CO)Cc3ccccc3)CC2)c1,inactive: -0.064%
16,COc1ccc([C@H]2CC(=O)C=C(c3cccc(C(C)C)c3)C2)cc1OC,inconclusive: 38.3%
17,O=C1c2cccc3cccc(c23)C(=O)N1CC1CCN(S(=O)(=O)c2ccc(F)cc2)CC1,inactive: 0.209%
18,Cc1nn(C)c(C(=O)N/N=C/c2ccc(Br)cc2)c1Cl,inconclusive: 78.4%
19,Cc1ccc(/C=C(\C#N)C(=O)N2CCCC2)c(C)c1,inconclusive: 33.3%
20,O=C(O)/C=C/C(=O)Nc1ccccc1C(=O)OCC(=O)c1ccc2c(c1)OCCO2,inactive: 2.52%
21,CCOC(=O)N1CCC(NC(=O)c2cc3c(-c4ccc(OC)c(OC)c4)nn(C)c3s2)CC1,inactive: 1.31%
22,Cc1cc(/C=N/NC(=O)c2ccccn2)c(C)n1-c1cccc([N+](=O)[O-])c1,inconclusive: 33.1%
23,CCN(CC)c1ccc2cc(C=O)c(=O)oc2c1,inconclusive: 63.9%

row,Compound,activation
1,COc1ccc(CNC(=S)NC2CCCCC2)cc1,inconclusive: 61.4%
2,O=C(N1CCOCC1)N1CCN(c2nc(-c3ccc(F)cc3)cs2)CC1,inconclusive: 51.9%
3,O=C1C(C=NCCN2CCOCC2)=C(O)c2ccccc21,inactive: 0.508%
4,O=C(NCCCN1CCCC1=O)c1cccc(NS(=O)(=O)c2ccccc2)c1,inactive: -0.0589%
5,Cc1ccc(N2CC(C(=O)Nc3cccc(F)c3)CC2=O)cc1 (centres undefined),inconclusive: 43%
6,CCN(CC)S(=O)(=O)c1ccc(C(=O)Nc2ccc(Cc3ccncc3)cc2)cc1,active: 80.7%
7,CCc1nnc(NC(=O)c2cc(S(=O)(=O)N3CCOCC3)ccc2N2CCCCC2)s1,inconclusive: 52.2%
8,COCCNc1nc2c(-c3cccc(C(F)(F)F)c3)nnn2c2ccccc12,inactive: -0.52%
9,Cc1ccc(CN2C(=O)c3ccccc3NC23CCN(Cc2ccccc2)CC3)cc1,inconclusive: 39.9%
10,CCOC(=O)c1ccc(NC(=S)N2CCCC(C)C2)cc1 (centres undefined),inconclusive: 33.8%
11,O=C(Nc1nnc(C(F)(F)F)s1)c1ccc(Br)s1,inactive: 8.82%
12,COc1cccc(NC(=O)C2CCCCC2)c1,inconclusive: 36.2%
13,CCc1nnc(NC(=O)[C@@H](NC(=O)c2ccc(C(C)(C)C)cc2)C(C)C)s1,inactive: 3.09%
14,O=C(C1CCN(S(=O)(=O)c2ccc(-n3cnnn3)cc2)CC1)N1CCCCC1,inactive: 0.96%
15,CSc1cc(-c2ccc(Cl)cc2)c(C(=O)N2CCCC2)s1,inconclusive: 40.1%
16,COC(=O)/C(=N\OCc1ccc(C#N)cc1)c1c(C)nn(C)c1C,inactive: -0.168%
17,COc1ccc(Cc2noc(CN3CCN(C4CCc5ccccc5C4)CC3)n2)cc1OC (centres undefined),inconclusive: 65.2%
18,CCCCc1ccc(NC(=S)NCCN2CCOCC2)cc1,inactive: 22.6%
19,Cc1ccc(C(=O)CCC(=O)Nc2cc(C)ccn2)cc1,inconclusive: 30.2%
20,CCCCCCCCNc1ncnc2ccccc12,inconclusive: 50.5%
